According to paper PMC12794188, “Maternal–Fetal Transfer and Toxicokinetics of 2,2′,5,5′-Tetrachlorobiphenyl, [^14C]-PCB52, Following Intratracheal Administration” (Chemical Research in Toxicology, 2025):
This continues a long series; more values of the same kind are listed elsewhere.

Experiment: Toxicokinetics and tissue disposition of total [14C] radioactivity after a single intratracheal dose of [14C]-PCB52 (0.157 mg/kg) in pregnant rats at GD 11±1
Format: in vivo, Sprague–Dawley rats
Experimental: Female Sprague–Dawley rats (8 weeks old) weighing 237–269.7 g (mean = 247.5 g) (Envigo RMS, LLC, Indianapolis, IN) were used for this study. All animal experiments were performed following the protocols evaluated and approved by the University of Iowa Institutional Animal Care and Use Committee (approval number 3091097). After arrival, the animals were acclimated for 7 days. The animals were housed in a light and temperature-controlled environment with ad libitum access to food and water during quarantine and throughout the study. Timed pregnancy was achieved by harem mating. , Briefly, one male and two female rats were placed together in the evening and checked for vaginal plug the following day. If vaginal plug was present, the male was removed from the breeding cage, and the gestation day 0 (GD 0), 0-day post coitum was assigned. Pregnancies were confirmed by ultrasound scan at GD 9. The dams were exposed at GD 11 (±1 day) to capture the period of early organogenesis and hormonal function, which falls within week 3 of human embryonic development. ,− On the day of the experiment, pregnant rats were intratracheally administered an average of 40 μg (range, 35–45 μg) of [^14C]-PCB52 in 100 μL of exposure solution. Although the dose used in this study exceeded the tolerable daily intake (TDI) of PCBs for healthy individuals, which is 1.6 μg per day for an individual weighing 80 kg, the use of higher acute doses has been established in toxicological studies intended for risk assessment. The intratracheal instillation method was chosen for administering [^14C]-PCB52 to represent inhalation exposures, capture exhaled concentration, and efficiently utilize the limited availability of the cost-intensive radiolabeled PCB52. , Although inhalation exposure would better represent real-world exposures to airborne LC-PCBs, it would not allow us to accurately measure the amount of PCB52 exhaled into the air after exposure and is experimentally infeasible. […] All intratracheal instillations were done under light anesthesia, achieved using a 4% isoflurane concentration via a Fortec vaporizer (Cyprane, Keighley, UK). The animals recovered from anesthesia within 1 min. Subsequently, the animals were housed within a cylindrical glass chamber measuring 2 L in volume, equipped with glass drainage mechanisms to facilitate urine collection and a metallic screen to segregate urine from feces (as in Figure S1). Air was drawn from the chamber at 6.0 L/min through a cartridge containing the XAD-2 polymeric resin to capture any exhaled [^14C]-PCB52. For periods longer than 24 h postexposure, exposed dams were placed in a metabolic cage, which was fitted with a cartridge containing XAD-2 to capture exhaled [^14C]-PCB52 as in other end points.
Maternal blood, urine, and feces samples were collected immediately before and at 0.21, 1.67, 12, 24, 48, and 96 h after lung dosing. The exposed dams were euthanized using 4% isoflurane, followed by cervical dislocation and exsanguination via a cardiac puncture. Euthanasia was consistently performed during the light cycle. Dams’ fur was wiped and analyzed for radioactivity. Using the retro-orbital blood collection method, 0.5–1.5 mL ([…] of an exposed pregnant rat’s body weight) of blood sample was collected from each of the dams until the individual dams were necropsied for whole-body tissue harvesting. At the end of the exposure period, the chamber’s interior walls were rinsed separately with water and acetone/hexane (25 – 45 mL) and wiped to measure residues. From the collected whole blood samples, 100 μL were aliquoted into three vials each, and the remaining blood was allowed to clot at room temperature before being centrifuged to yield serum. The placentas, developing fetuses, and whole-body tissue samples were harvested immediately before exposure and at 0.21, 1.67, 12, 24, and 96 h postexposure. […]

[1] = Adipose tissue, 96 h post-exposure
[2] = Adrenal gland, 0.21 h post-exposure
[3] = Adrenal gland, 1.67 h post-exposure
[4] = Adrenal gland, 12 h post-exposure
[5] = Adrenal gland, 24 h post-exposure
[6] = Adrenal gland, 96 h post-exposure
[7] = Amniotic fluid, 0.21 h post-exposure
[8] = Amniotic fluid, 1.67 h post-exposure
[9] = Amniotic fluid, 12 h post-exposure
[10] = Amniotic fluid, 24 h post-exposure
[11] = Amniotic fluid, 96 h post-exposure
[12] = Lymph nodes, 0.21 h post-exposure
[13] = Lymph nodes, 1.67 h post-exposure
[14] = Lymph nodes, 12 h post-exposure
[15] = Lymph nodes, 24 h post-exposure
[16] = Lymph nodes, 96 h post-exposure
[17] = Matter in amp. colon, 0.21 h post-exposure
[18] = Matter in amp. colon, 1.67 h post-exposure
[19] = Matter in amp. colon, 12 h post-exposure
[20] = Matter in amp. colon, 24 h post-exposure
[21] = Matter in amp. colon, 96 h post-exposure
[22] = Matter in colon, 0.21 h post-exposure

## Clc1ccc(Cl)c(-c2cc(Cl)ccc2Cl)c1 [PCB52, 2,2′,5,5′-Tetrachlorobiphenyl]
Adipose tissue
  C96: 115.14 dpm/mg
Adipose tissue, 24 h post-exposure
  Conc. per mg wet tissue: 33.52 dpm/mg
[1]
  Conc. per mg wet tissue: 11.83 dpm/mg
  Percent tissue distribution: 12.91%
Adrenal gland
  C96: 33.10 dpm/mg
[2]
  Conc. per mg wet tissue: 3.40 dpm/mg
  Percent tissue distribution: 3.76%
[3]
  Conc. per mg wet tissue: 0.35 dpm/mg
  Percent tissue distribution: 0.08%
[4]
  Conc. per mg wet tissue: 10.33 dpm/mg
  Percent tissue distribution: 0.04%
[5]
  Conc. per mg wet tissue: 5.68 dpm/mg
  Percent tissue distribution: 0.02%
[6]
  Conc. per mg wet tissue: 3.40 dpm/mg
  Percent tissue distribution: 0.02%
Amniotic Fluid
  C96: 0.12 dpm/mg
[7]
  Conc. per mg wet tissue: 0.01 dpm/mg
  Percent tissue distribution: 0.0024%
[8]
  Conc. per mg wet tissue: 10.77 dpm/mg
  Percent tissue distribution: 0.018%
[9]
  Conc. per mg wet tissue: 0.06 dpm/mg
  Percent tissue distribution: 0.0008%
[10]
  Conc. per mg wet tissue: 0.12 dpm/mg
  Percent tissue distribution: 0.0009%
[11]
  Conc. per mg wet tissue: 0.01 dpm/mg
  Percent tissue distribution: 0.0004%
Bladder
  C96: 9.20 dpm/mg
Bladder, 0.21 h post-exposure
  Conc. per mg wet tissue: 0.00 dpm/mg
  Percent tissue distribution: 0.01%
Bladder, 1.67 h post-exposure
  Conc. per mg wet tissue: 2.82 dpm/mg
  Percent tissue distribution: 0.05%
Bladder, 12 h post-exposure
  Conc. per mg wet tissue: 1.20 dpm/mg
  Percent tissue distribution: 0.01%
Bladder, 24 h post-exposure
  Conc. per mg wet tissue: 3.71 dpm/mg
  Percent tissue distribution: 0.02%
Bladder, 96 h post-exposure
  Conc. per mg wet tissue: 0.00 dpm/mg
Colon tissue
  C96: 18.20 dpm/mg
Duodenum
  C96: 8.12 dpm/mg
Esophagus
  C96: 2.43 dpm/mg
Fetus
  C96: 0.57 dpm/mg
Fetus, 0.21 h post-exposure
  Conc. per mg wet tissue: 0.06 dpm/mg
  Percent tissue distribution: 0.07%
Fetus, 1.67 h post-exposure
  Conc. per mg wet tissue: 2.02 dpm/mg
  Percent tissue distribution: 0.08%
Fetus, 12 h post-exposure
  Conc. per mg wet tissue: 0.47 dpm/mg
  Percent tissue distribution: 0.002%
Fetus, 24 h post-exposure
  Conc. per mg wet tissue: 0.19 dpm/mg
  Percent tissue distribution: 0.03%
Fetus, 96 h post-exposure
  Conc. per mg wet tissue: 0.06 dpm/mg
  Percent tissue distribution: 0.02%
Heart
  C96: 1.80 dpm/mg
Heart, 0.21 h post-exposure
  Conc. per mg wet tissue: 24.66 dpm/mg
  Percent tissue distribution: 0.95%
Heart, 1.67 h post-exposure
  Conc. per mg wet tissue: 5.89 dpm/mg
  Percent tissue distribution: 0.32%
Heart, 12 h post-exposure
  Conc. per mg wet tissue: 3.15 dpm/mg
  Percent tissue distribution: 0.10%
Heart, 24 h post-exposure
  Conc. per mg wet tissue: 3.56 dpm/mg
  Percent tissue distribution: 0.08%
Heart, 96 h post-exposure
  Percent tissue distribution: 0.01%
Kidney
  C96: 5.98 dpm/mg
Kidney, 0.21 h post-exposure
  Conc. per mg wet tissue: 40.98 dpm/mg
  Percent tissue distribution: 2.47%
Kidney, 1.67 h post-exposure
  Conc. per mg wet tissue: 11.01 dpm/mg
  Percent tissue distribution: 0.63%
Kidney, 12 h post-exposure
  Conc. per mg wet tissue: 2.65 dpm/mg
  Percent tissue distribution: 0.30%
Kidney, 24 h post-exposure
  Conc. per mg wet tissue: 2.44 dpm/mg
  Percent tissue distribution: 0.38%
Kidney, 96 h post-exposure
  Conc. per mg wet tissue: 0.53 dpm/mg
  Percent tissue distribution: 0.08%
Liver
  C96: 5.19 dpm/mg
Lung
  C96: 14.01 dpm/mg
Lung, 0.21 h post-exposure
  Conc. per mg wet tissue: 6.22 dpm/mg
  Percent tissue distribution: 3.48%
Lung, 1.67 h post-exposure
  Conc. per mg wet tissue: 9.65 dpm/mg
  Percent tissue distribution: 1.40%
Lung, 12 h post-exposure
  Conc. per mg wet tissue: 6.35 dpm/mg
  Percent tissue distribution: 0.71%
Lung, 24 h post-exposure
  Conc. per mg wet tissue: 6.31 dpm/mg
  Percent tissue distribution: 0.58%
Lung, 96 h post-exposure
  Conc. per mg wet tissue: 1.70 dpm/mg
  Percent tissue distribution: 0.13%
[12]
  Conc. per mg wet tissue: 9.72 dpm/mg
  Percent tissue distribution: 0.02%
[13]
  Conc. per mg wet tissue: 21.16 dpm/mg
  Percent tissue distribution: 0.05%
[14]
  Conc. per mg wet tissue: 23.12 dpm/mg
  Percent tissue distribution: 0.04%
[15]
  Conc. per mg wet tissue: 26.43 dpm/mg
  Percent tissue distribution: 0.03%
[16]
  Conc. per mg wet tissue: 4.53 dpm/mg
  Percent tissue distribution: 0.02%
Mammary glands
  C96: 44.06 dpm/mg
Matter in Colon
  C96: 98.31 dpm/mg
Matter in amp colon
  C96: 34.55 dpm/mg
[17]
  Conc. per mg wet tissue: 2.42 dpm/mg
  Percent tissue distribution: 0.12%
[18]
  Conc. per mg wet tissue: 0.81 dpm/mg
  Percent tissue distribution: 0.08%
[19]
  Conc. per mg wet tissue: 32.64 dpm/mg
  Percent tissue distribution: 2.61%
[20]
  Conc. per mg wet tissue: 27.35 dpm/mg
  Percent tissue distribution: 1.82%
[21]
  Conc. per mg wet tissue: 3.55 dpm/mg
  Percent tissue distribution: 0.30%
[22]
  Conc. per mg wet tissue: 2.42 dpm/mg
  Percent tissue distribution: 0.14%
Matter in colon, 1.67 h post-exposure
  Conc. per mg wet tissue: 1.23 dpm/mg
